Source: PMC12550800
Results are given in words; binding and its absence hold for the method and conditions named. Binding seen in cells or lysates may run through a third protein. Some entries that bind do so weakly or less than the wild type.

Protein sequences, listed by entry. Tags and fused reporters are not part of them.
UniProt P05556: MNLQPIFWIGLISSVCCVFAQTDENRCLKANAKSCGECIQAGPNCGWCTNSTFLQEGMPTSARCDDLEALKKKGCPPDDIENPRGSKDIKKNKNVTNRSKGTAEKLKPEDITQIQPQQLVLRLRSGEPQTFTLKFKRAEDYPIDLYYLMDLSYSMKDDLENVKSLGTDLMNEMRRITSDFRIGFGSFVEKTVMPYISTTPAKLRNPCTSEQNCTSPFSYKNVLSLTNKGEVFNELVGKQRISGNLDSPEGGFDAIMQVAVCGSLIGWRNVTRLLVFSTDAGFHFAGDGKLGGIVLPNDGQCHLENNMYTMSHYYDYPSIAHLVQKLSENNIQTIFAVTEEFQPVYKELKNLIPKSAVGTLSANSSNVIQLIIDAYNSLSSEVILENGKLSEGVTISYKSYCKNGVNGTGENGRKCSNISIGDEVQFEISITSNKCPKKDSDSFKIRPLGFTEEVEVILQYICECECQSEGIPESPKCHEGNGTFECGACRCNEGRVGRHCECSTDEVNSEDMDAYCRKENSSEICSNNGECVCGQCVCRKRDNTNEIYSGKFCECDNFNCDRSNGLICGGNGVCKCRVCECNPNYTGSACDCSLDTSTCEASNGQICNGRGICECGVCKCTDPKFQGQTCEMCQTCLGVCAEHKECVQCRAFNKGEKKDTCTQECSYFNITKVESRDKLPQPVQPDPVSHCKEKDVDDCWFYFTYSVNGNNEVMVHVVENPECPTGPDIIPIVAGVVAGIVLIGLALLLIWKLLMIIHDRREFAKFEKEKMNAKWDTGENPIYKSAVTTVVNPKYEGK
UniProt Q99677: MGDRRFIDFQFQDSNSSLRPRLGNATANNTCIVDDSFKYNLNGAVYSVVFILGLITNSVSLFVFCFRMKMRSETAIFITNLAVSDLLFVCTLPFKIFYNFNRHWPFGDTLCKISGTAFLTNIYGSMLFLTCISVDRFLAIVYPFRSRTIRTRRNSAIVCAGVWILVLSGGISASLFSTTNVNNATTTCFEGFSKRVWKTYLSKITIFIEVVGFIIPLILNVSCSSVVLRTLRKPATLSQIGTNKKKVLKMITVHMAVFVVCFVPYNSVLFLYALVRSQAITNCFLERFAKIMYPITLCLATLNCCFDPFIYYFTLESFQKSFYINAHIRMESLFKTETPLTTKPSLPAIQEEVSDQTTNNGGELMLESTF

Tests used:
[1] = biological target: integrin β1 (human (endogenous in MDA-MB-231 and BT549)) (UniProt P05556); test: co-IP; endogenous IP from BT549 lysates (Con, ST6GAL1-KO, ST6GAL1-Res cells) in NETN buffer (20 mM Tris-HCl pH 8.0, 100 mM NaCl, 1 mM EDTA, 0.5% Nonidet P-40), anti-integrin β1 antibody with protein-A/G PLUS beads, 4 °C; blotted for LPAR4, EGFR, integrin β1
[2] = biological target: integrin β1 (human (endogenous in MDA-MB-231 and BT549)) (UniProt P05556); test: co-IP; endogenous IP from MDA-MB-231 lysates (Con, ST6GAL1-KO, ST6GAL1-Res cells) in NETN buffer (20 mM Tris-HCl pH 8.0, 100 mM NaCl, 1 mM EDTA, 0.5% Nonidet P-40), anti-integrin β1 antibody with protein-A/G PLUS beads, 4 °C; blotted for LPAR4, EGFR, integrin β1

LPAR4 (from UniProt Q99677 1-370) (receptor)
binding [1]: binds
binding [2]: binds
